According to publication PMC7434902:
Results are given in words; binding and its absence hold for the method and conditions named. Binding seen in cells or lysates may run through a third protein. These calls come from enrichment with a bait or labelling near it, and not all partners need be listed.

Sequences of proteins named here, by UniProt entry; tags and fusion partners are left off. Residues count along the entry.
UniProt P52732: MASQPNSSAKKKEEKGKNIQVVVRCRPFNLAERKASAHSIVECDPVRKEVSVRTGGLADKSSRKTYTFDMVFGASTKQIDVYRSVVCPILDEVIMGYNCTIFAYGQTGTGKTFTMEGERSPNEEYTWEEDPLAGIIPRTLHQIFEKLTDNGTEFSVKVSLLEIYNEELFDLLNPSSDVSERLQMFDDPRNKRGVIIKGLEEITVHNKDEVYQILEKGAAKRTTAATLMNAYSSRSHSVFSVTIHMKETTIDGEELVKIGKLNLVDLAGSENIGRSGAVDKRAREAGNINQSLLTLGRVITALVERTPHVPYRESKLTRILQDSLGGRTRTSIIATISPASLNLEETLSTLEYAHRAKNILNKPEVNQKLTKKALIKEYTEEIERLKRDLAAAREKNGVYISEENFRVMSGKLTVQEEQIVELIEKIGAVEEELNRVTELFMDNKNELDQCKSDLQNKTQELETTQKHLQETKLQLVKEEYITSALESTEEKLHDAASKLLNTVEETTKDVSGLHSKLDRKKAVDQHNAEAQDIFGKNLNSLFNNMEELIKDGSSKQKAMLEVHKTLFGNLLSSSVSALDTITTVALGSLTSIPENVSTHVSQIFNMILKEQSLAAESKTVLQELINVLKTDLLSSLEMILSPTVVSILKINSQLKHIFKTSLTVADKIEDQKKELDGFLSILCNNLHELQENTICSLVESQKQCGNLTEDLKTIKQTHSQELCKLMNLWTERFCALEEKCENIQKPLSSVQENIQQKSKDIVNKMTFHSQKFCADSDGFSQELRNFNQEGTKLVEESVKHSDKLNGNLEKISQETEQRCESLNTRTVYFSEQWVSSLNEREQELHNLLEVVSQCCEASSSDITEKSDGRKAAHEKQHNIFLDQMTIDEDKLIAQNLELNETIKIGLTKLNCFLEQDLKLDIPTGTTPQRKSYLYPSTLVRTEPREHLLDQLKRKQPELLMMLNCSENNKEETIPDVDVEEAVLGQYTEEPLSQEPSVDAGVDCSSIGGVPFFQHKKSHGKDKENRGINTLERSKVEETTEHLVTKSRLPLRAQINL
UniProt P06396, residues 28-782: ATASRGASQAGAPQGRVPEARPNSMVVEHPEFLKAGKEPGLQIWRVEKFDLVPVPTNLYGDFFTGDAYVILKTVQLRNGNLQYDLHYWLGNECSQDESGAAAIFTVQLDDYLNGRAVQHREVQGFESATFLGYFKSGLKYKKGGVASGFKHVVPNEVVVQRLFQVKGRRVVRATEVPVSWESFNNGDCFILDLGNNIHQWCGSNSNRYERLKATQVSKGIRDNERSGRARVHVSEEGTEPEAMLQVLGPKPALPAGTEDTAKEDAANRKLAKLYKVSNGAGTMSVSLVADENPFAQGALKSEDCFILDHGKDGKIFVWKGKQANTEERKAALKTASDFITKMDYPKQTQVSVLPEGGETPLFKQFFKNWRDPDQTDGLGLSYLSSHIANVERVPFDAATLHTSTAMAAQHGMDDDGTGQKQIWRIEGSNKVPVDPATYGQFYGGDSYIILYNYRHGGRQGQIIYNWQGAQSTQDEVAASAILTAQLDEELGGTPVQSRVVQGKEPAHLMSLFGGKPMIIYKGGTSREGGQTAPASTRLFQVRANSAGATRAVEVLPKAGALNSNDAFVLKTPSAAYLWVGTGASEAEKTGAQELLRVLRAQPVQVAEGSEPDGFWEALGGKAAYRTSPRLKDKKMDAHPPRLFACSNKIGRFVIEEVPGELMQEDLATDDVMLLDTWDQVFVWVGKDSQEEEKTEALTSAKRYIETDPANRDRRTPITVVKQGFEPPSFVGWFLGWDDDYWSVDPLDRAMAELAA
UniProt P68104: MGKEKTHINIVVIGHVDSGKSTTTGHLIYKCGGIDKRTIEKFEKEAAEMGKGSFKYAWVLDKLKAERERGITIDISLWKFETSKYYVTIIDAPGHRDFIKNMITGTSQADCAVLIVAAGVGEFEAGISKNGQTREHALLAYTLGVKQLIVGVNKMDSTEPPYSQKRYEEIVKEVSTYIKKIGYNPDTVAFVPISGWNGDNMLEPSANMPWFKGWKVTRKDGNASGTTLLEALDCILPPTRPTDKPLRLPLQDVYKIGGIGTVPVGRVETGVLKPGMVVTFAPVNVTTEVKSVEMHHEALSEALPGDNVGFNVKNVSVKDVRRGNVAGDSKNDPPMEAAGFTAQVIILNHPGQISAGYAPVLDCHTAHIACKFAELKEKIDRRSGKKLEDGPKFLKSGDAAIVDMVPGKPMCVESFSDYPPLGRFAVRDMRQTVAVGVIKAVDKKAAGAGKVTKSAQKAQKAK
UniProt P14625, residues 22-803: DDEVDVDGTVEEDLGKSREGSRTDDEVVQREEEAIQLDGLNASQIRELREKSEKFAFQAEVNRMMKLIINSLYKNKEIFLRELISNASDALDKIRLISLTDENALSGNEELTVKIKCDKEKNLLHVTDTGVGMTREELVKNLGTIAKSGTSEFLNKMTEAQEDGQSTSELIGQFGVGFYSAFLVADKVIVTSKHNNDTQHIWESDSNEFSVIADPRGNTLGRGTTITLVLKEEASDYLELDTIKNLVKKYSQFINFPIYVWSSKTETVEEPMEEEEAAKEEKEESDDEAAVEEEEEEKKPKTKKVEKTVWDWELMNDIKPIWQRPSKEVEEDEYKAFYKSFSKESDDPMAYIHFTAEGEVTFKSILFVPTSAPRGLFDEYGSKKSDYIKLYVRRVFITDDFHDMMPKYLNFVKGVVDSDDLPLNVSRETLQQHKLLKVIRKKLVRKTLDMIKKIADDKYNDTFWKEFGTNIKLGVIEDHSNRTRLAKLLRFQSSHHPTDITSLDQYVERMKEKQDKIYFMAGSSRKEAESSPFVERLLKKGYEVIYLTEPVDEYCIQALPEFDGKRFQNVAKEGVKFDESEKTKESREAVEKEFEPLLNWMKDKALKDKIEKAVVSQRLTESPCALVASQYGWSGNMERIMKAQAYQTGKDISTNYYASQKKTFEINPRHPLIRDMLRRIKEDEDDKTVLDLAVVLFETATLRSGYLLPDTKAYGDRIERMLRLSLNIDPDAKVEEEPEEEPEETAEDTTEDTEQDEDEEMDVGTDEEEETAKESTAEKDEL
UniProt Q14203: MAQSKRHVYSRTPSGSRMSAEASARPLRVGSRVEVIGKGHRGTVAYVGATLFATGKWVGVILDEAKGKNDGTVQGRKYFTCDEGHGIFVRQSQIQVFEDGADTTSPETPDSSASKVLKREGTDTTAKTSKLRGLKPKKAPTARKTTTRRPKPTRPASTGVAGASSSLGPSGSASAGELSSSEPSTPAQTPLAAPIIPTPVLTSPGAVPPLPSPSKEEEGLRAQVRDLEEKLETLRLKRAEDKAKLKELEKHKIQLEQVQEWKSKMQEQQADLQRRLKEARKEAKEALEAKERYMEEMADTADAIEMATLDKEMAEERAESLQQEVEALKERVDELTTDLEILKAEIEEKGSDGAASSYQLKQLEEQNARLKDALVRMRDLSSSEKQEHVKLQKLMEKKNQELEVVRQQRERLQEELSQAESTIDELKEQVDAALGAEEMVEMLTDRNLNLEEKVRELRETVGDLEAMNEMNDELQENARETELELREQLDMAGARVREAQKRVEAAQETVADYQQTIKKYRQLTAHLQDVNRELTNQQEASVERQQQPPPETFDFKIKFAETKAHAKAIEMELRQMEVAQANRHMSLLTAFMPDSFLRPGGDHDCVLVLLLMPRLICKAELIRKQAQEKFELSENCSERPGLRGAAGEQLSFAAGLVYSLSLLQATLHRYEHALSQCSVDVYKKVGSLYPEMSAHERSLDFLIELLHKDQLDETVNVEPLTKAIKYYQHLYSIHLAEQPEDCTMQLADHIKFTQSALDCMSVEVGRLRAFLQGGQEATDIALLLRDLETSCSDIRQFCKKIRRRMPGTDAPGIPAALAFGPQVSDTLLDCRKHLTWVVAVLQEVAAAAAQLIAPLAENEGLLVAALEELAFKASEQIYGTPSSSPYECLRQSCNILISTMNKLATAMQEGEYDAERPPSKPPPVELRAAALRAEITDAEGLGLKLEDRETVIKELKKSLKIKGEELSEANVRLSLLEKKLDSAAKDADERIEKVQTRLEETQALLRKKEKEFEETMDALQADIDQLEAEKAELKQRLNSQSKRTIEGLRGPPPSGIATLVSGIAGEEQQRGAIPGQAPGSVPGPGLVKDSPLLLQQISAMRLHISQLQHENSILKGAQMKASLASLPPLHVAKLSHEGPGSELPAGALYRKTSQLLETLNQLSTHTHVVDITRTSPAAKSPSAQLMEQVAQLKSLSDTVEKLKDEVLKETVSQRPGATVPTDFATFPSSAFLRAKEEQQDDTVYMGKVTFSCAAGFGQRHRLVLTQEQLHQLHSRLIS
UniProt Q00610: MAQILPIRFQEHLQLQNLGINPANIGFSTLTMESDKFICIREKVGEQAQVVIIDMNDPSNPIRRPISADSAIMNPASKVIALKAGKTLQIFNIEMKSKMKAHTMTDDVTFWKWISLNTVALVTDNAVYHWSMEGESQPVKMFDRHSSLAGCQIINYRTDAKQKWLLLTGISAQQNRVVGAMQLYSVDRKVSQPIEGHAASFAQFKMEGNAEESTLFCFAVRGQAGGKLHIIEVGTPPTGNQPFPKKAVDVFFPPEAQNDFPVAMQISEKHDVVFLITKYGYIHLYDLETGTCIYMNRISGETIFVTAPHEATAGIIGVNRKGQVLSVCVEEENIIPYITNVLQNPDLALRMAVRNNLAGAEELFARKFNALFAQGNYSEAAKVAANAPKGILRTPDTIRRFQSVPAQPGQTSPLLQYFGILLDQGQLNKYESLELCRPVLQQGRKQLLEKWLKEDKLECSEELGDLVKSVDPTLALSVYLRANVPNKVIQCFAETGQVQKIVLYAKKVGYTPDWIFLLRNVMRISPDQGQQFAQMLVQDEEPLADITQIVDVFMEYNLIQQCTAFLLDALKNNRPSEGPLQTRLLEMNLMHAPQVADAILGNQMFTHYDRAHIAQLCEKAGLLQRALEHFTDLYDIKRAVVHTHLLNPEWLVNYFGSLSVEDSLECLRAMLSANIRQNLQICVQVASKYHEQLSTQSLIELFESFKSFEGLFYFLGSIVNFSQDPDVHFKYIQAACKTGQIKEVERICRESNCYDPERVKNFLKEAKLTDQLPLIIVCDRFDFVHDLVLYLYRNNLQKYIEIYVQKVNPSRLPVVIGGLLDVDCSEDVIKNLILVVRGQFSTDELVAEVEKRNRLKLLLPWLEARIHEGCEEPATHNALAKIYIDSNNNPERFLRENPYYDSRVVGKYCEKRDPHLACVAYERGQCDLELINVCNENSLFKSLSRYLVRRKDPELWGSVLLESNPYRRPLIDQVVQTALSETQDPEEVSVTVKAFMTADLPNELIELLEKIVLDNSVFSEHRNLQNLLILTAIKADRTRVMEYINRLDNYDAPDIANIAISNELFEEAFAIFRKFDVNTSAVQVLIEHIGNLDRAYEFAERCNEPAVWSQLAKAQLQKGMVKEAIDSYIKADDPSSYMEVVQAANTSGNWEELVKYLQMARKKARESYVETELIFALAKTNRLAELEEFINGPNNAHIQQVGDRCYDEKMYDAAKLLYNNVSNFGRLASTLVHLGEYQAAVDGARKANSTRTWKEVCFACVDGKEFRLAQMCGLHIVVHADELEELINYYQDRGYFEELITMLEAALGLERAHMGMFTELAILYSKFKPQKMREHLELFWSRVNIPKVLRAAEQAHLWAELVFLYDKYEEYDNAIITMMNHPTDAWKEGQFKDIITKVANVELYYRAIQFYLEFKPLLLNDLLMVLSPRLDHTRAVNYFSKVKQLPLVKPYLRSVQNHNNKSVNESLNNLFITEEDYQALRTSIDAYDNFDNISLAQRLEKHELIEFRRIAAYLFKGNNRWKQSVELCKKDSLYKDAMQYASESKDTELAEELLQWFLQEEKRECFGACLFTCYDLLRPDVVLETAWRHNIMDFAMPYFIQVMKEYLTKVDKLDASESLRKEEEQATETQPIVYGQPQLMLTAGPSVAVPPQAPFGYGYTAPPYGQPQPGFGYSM
UniProt P14618: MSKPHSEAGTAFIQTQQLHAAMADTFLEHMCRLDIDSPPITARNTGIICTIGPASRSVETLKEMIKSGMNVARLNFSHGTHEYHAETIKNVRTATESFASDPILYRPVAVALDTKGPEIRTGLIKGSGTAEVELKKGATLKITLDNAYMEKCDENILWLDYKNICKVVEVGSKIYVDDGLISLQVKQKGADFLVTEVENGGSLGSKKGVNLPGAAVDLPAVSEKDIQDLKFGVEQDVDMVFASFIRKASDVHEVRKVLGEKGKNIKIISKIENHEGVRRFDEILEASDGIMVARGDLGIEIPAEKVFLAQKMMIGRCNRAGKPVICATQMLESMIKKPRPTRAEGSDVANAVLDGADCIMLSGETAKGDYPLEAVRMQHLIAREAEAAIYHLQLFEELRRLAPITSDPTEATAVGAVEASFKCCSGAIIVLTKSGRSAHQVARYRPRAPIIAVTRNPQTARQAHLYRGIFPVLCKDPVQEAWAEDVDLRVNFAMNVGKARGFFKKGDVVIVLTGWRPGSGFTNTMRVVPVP

B1: SEPT9 (protein, UniProt Q9UHD8 1-586)
chain: MKKSYSGGTRTSSGRLRRLGDSSGPALKRSFEVEEVETPNSTPPRRVQTPLLRATVASSTQKFQDLGVKNSEPSARHVDSLSQRSPKASLRRVELSGPKAAEPVSRRTELSIDISSKQVENAGAIGPSRFGLKRAEVLGHKTPEPAPRRTEITIVKPQESAHRRMEPPASKVPEVPTAPATDAAPKRVEIQMPKPAEAPTAPSPAQTLENSEPAPVSQLQSRLEPKPQPPVAEATPRSQEATEAAPSCVGDMADTPRDAGLKQAPASRNEKAPVDFGYVGIDSILEQMRRKAMKQGFEFNIMVVGQSGLGKSTLINTLFKSKISRKSVQPTSEERIPKTIEIKSITHDIEEKGVRMKLTVIDTPGFGDHINNENCWQPIMKFINDQYEKYLQEEVNINRKKRIPDTRVHCCLYFIPATGHSLRPLDIEFMKRLSKVVNIVPVIAKADTLTLEERVHFKQRITADLLSNGIDVYPQKEFDEDSEDRLVNEKFREMIPFAVVGSDHEYQVNGKRILGRKTKWGTIEVENTTHCEFAYLRDLLIRTHMQNIKDITSSIHFEAYRVKRLNEGSSAMANGMEEKEPEAPEM
B2: HK1 (protein, UniProt P19367 1-917)
chain: MIAAQLLAYYFTELKDDQVKKIDKYLYAMRLSDETLIDIMTRFRKEMKNGLSRDFNPTATVKMLPTFVRSIPDGSEKGDFIALDLGGSSFRILRVQVNHEKNQNVHMESEVYDTPENIVHGSGSQLFDHVAECLGDFMEKRKIKDKKLPVGFTFSFPCQQSKIDEAILITWTKRFKASGVEGADVVKLLNKAIKKRGDYDANIVAVVNDTVGTMMTCGYDDQHCEVGLIIGTGTNACYMEELRHIDLVEGDEGRMCINTEWGAFGDDGSLEDIRTEFDREIDRGSLNPGKQLFEKMVSGMYLGELVRLILVKMAKEGLLFEGRITPELLTRGKFNTSDVSAIEKNKEGLHNAKEILTRLGVEPSDDDCVSVQHVCTIVSFRSANLVAATLGAILNRLRDNKGTPRLRTTVGVDGSLYKTHPQYSRRFHKTLRRLVPDSDVRFLLSESGSGKGAAMVTAVAYRLAEQHRQIEETLAHFHLTKDMLLEVKKRMRAEMELGLRKQTHNNAVVKMLPSFVRRTPDGTENGDFLALDLGGTNFRVLLVKIRSGKKRTVEMHNKIYAIPIEIMQGTGEELFDHIVSCISDFLDYMGIKGPRMPLGFTFSFPCQQTSLDAGILITWTKGFKATDCVGHDVVTLLRDAIKRREEFDLDVVAVVNDTVGTMMTCAYEEPTCEVGLIVGTGSNACYMEEMKNVEMVEGDQGQMCINMEWGAFGDNGCLDDIRTHYDRLVDEYSLNAGKQRYEKMISGMYLGEIVRNILIDFTKKGFLFRGQISETLKTRGIFETKFLSQIESDRLALLQVRAILQQLGLNSTCDDSILVKTVCGVVSRRAAQLCGAGMAAVVDKIRENRGLDRLNVTVGVDGTLYKLHPHFSRIMHQTVKELSPKCNVSFLLSEDGSGKGAALITAVGVRLRTEASS
B3: SEPT2 (protein, UniProt Q15019 1-361)
chain: MSKQQPTQFINPETPGYVGFANLPNQVHRKSVKKGFEFTLMVVGESGLGKSTLINSLFLTDLYPERVIPGAAEKIERTVQIEASTVEIEERGVKLRLTVVDTPGYGDAINCRDCFKTIISYIDEQFERYLHDESGLNRRHIIDNRVHCCFYFISPFGHGLKPLDVAFMKAIHNKVNIVPVIAKADTLTLKERERLKKRILDEIEEHNIKIYHLPDAESDEDEDFKEQTRLLKASIPFSVVGSNQLIEAKGKKVRGRLYPWGVVEVENPEHNDFLKLRTMLITHMQDLQEVTQDLHYENFRSERLKRGGRKVENEDMNKDQILLEKEAELRRMQEMIARMQAQMQMQMQGGDGDGGALGHHV
B4: ANXA1 (protein, UniProt P04083 1-346)
chain: MAMVSEFLKQAWFIENEEQEYVQTVKSSKGGPGSAVSPYPTFNPSSDVAALHKAIMVKGVDEATIIDILTKRNNAQRQQIKAAYLQETGKPLDETLKKALTGHLEEVVLALLKTPAQFDADELRAAMKGLGTDEDTLIEILASRTNKEIRDINRVYREELKRDLAKDITSDTSGDFRNALLSLAKGDRSEDFGVNEDLADSDARALYEAGERRKGTDVNVFNTILTTRSYPQLRRVFQKYTKYSKHDMNKVLDLELKGDIEKCLTAIVKCATSKPAFFAEKLHQAMKGVGTRHKALIRIMVSRSEIDMNDIKAFYQKMYGISLCQAILDETKGDYEKILVALCGGN

The molecules below were run against KIF11 (human (endogenous in RPE1)) (UniProt P52732) (assay: affinity purification with mass spectrometry; endogenous KIF11 immunoprecipitated (anti-KIF11 antibody on Dynabeads Protein G, overnight at 4 °C) from 25 mg of G0 synchronized RPE1 whole cell extract; LC-MS/MS on beads, or of the KIF11 band cut from a gel after boiling off the beads).

Row | binding | Molecule
1 | binds | FLNA (from UniProt P21333 1-2647)
2 | binds | TUBB4B (from UniProt P68371 1-445)
3 | binds | GSN (from UniProt P06396 28-782)
4 | binds | HSPA8 (from UniProt P11142 1-646)
5 | binds | KIF5B/Kinesin-1 (from UniProt P33176 1-963)
6 | binds | HSP90AA1 (from UniProt P07900 1-732)
7 | binds | IPO5 (from UniProt O00410 1-1097)
8 | binds | MYH10 (from UniProt P35580 1-1976)
9 | binds | HSP90AB1 (from UniProt P08238 1-724)
10 | binds | EEF1A1 (from UniProt P68104 1-462)
11 | binds | HSP90B1 (from UniProt P14625 22-803)
12 | binds | SPTAN1 (from UniProt Q13813 1-2472)
13 | binds | DCTN1 (from UniProt Q14203 1-1278)
14 | binds | CLTC (from UniProt Q00610 1-1675)
15 | binds | EXOC4 (from UniProt Q96A65 1-974)
16 | binds | PKM (from UniProt P14618 1-531)
17 | binds | ATP2B4 (from UniProt P23634 1-1241)
18 | binds | SF3B2 (from UniProt Q13435 1-895)
19 | binds | B1
20 | binds | B2
21 | binds | B3
22 | binds | B4
